Laboratory results reported in US20180094232A1, “Methods For The Cryopreservation Of Mammalian Cells” (The General Hospital Corporation, priority 2009, published 2018).
At least one structure is not confirmed: it was looked up by name or label, or the drawing left a doubt.

Test: Vitrification of CPA laden solutions: opacity after plunging the device into liquid nitrogen
Assay type: physicochemical
Excerpt: One convenient way for determining non-vitrification is the appearance of opacity as a result of ice formation when freezing solutions in a straw. If there is no visible opacity, it is called apparent vitrification. Although opacity could be easily identified in the traditional plastic straw using the naked eye, it is very difficult to do so for the quartz micro-capillary due to its small dimension. Therefore, an experimental setup shown in FIG. 10 was designed for visualization of opacity during cooling by directing two focused lights on the capillary held against a dark background for all the devices shown in FIG. 1 except the stainless steel micro-capillary. […] This setup was used to determine the threshold (minimum) CPA concentration required to completely avoid opacity during cooling. […] Various total CPA concentrations from 12% to 30% by volume with 2% increments were studied using both the open pulled straw and the thin walled quartz micro-capillary. Since 0.2-1 M sucrose or trehalose has been used in essentially all studies for cryopreservation of mammalian oocytes by both slow freezing and vitrification, further studies were also performed using the quartz micro-capillary for solutions with 0.5 M sucrose or trehalose plus 1.5 M, 2.0 M, and 2.5 M PROH, respectively. The solutions can be loaded into the open pulled straw and quartz micro-capillaries by capillary action while it can be expelled out of the capillaries by using a micro-syringe attached with a soft PEP polymer needle tip to push from the end of the capillaries with a bigger opening.

SMILES: CC(O)CO (stereo not drawn) [1,2-Propanediol (PROH), 1,2-propanediol]
- opacity on cooling, experimental matrix by CPA Volume (% v) (0.2 mm OD quartz micro-capillary (QMC), 14 % v CPA): +
- opacity on cooling, experimental matrix by CPA Volume (% v) (0.2 mm OD quartz micro-capillary (QMC), 16 % v CPA): +
- opacity on cooling, experimental matrix by CPA Volume (% v) (open pulled straw (OPS), 16 % v CPA): −
- opacity on cooling, experimental matrix by CPA Volume (% v) (open pulled straw (OPS), 22 % v CPA): +
- opacity on cooling, experimental matrix by CPA Volume (% v) (open pulled straw (OPS), 24 % v CPA): +
- opacity on cooling, experimental matrix by CPA Volume (% v) (open pulled straw (OPS), 26 % v CPA): +
